# No constants are given. Whether binding was seen depends on the method and setting. Some results given as binding are weak or reduced against the parent protein; the word gives no strength.
# Amino acid sequences for entries named in this document (tags omitted). A change or cut given only in a name is not applied to a line headed by its entry. Chains listed by the source or under a name are the forms on record and can include a tag or linker.
# Human IL-10Rβ extracellular domain (20-220), biotinylated (Q08334, form named): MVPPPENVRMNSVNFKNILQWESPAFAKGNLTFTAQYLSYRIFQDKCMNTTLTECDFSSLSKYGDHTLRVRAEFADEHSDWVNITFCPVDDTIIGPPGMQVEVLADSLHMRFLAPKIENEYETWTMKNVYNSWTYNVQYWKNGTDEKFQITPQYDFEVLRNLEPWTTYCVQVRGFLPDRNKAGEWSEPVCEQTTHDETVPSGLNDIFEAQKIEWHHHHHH
# UniProt P22301: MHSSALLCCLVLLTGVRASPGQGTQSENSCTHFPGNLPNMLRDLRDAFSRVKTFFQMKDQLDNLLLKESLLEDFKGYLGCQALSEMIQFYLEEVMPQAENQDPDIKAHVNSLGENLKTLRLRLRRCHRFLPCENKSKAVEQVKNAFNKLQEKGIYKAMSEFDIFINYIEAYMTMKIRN
# Target: Human IL-10Rβ extracellular domain (20-220), biotinylated (human) (UniProt Q08334)
# Assay: yeast display; titration of SA-647-IL-10Rβ on yeast pre-bound with 500 nM unlabeled IL-10Rα; compared with WT monomeric IL-10
row,Substance,binding
1,"Affinity matured IL-10 clone 5.2, displayed on yeast (from UniProt P22301 19-178) (ligand)",binds
2,"Affinity matured IL-10 clone 5.1, displayed on yeast (from UniProt P22301 19-178) (ligand)",binds
3,"Affinity matured IL-10 clone 5.3, displayed on yeast (from UniProt P22301 19-178) (ligand)",binds

# Reference: patent publication US20230192796A1
